Source: PubChem BioAssay AID1053208 (Peter MacCallum Cancer Centre, 2014)
Screen: 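Synthetic lethal interactions between gene loss and doxorubicin in osteosarcoma cells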 (primary screen). Cells: mouse osteosarcoma cells, early-passage culture from an engineered mouse model of fibroblastic bone tumour. Knock-down reagent: siRNA pool against mouse genes, 40 nM. Timing: about 120 h (48 h before drug, then 72 h with drug). Conditions: doxorubicin 100 nM for 72 h, roughly 30-40% inhibitory dose. Measurement: 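Luminescent ATP signal taken as viability with or without 100 nM doxorubicin for 72 h; mean of two wells set against non-targeting siRNA and turned into robust z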. Direction: viability z-score with doxorubicin: higher = more viable cells under doxorubicin; viability z-score without drug: higher = more viable cells with knock-down alone. Call rule: 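Called active if knock-down leaves viability unchanged without drug (z within -2 to 2) but lowers it with doxorubicin (z at or under -2)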.
Here is one part, drawn at random, of about 17,000 reagents. 788 of all reagents (4.7%) were called active. 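Calls rest on z-score classes alone; an extra cut-off of viability at most 70% of control was not applied to them.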 A number with no mark means an inactive call. The numbers tell different reagents against one gene apart. Some reagents were tested in more than one well and are listed for each. Further read-outs or replicates are left out here.

Knock-down of Tlcd1 gave: combined z-score class no change with or without drug; viability z-score with doxorubicin 1.12; viability z-score without drug -0.51. Depletion of Nfkbiz came out at: combined z-score class no change with or without drug; viability z-score with doxorubicin -0.11; viability z-score without drug -0.51. For Mtcp1, the values are combined z-score class no change with or without drug; viability z-score with doxorubicin -1.01; viability z-score without drug -0.51. After knock-down of LOC269472 (retired record) the results were combined z-score class no change with or without drug; viability z-score with doxorubicin 1.8; viability z-score without drug 1.69. For Recql5, the values are combined z-score class no change with or without drug; viability z-score with doxorubicin -0.22; viability z-score without drug -0.17. After knock-down of Smarca2, the screen gave combined z-score class no change with or without drug; viability z-score with doxorubicin -0.56; viability z-score without drug 0.51.

Depletion of Padi3 came out at: combined z-score class no change with or without drug; viability z-score with doxorubicin -0.67; viability z-score without drug 0.84. Depletion of Tbc1d8 resulted in: combined z-score class no change with or without drug; viability z-score with doxorubicin 1.69; viability z-score without drug 0.34. Against Lage3, the values are combined z-score class no change with or without drug; viability z-score with doxorubicin 0.11; viability z-score without drug 1.18. Silencing of Cacna1c resulted in: combined z-score class no change with or without drug; viability z-score with doxorubicin 0.9; viability z-score without drug 0.17. After knock-down of Maf1 the results were combined z-score class no change with or without drug; viability z-score with doxorubicin -1.46; viability z-score without drug 0. After knock-down of Micall2, the record shows combined z-score class no change with or without drug; viability z-score with doxorubicin -0.22; viability z-score without drug -0.17.

With knock-down of Pde4d #1, the record shows combined z-score class no change with or without drug; viability z-score with doxorubicin -0.45; viability z-score without drug -1.18. With knock-down of Pde4d #2 the results were combined z-score class low cell count with doxorubicin only (active); viability z-score with doxorubicin -2.7; viability z-score without drug -0.84. Ubap2 showed combined z-score class no change with or without drug; viability z-score with doxorubicin -0.45; viability z-score without drug -0.51. Tpbpb showed combined z-score class no change with or without drug; viability z-score with doxorubicin 0.34; viability z-score without drug -0.17. Depletion of Klf1 came out at: combined z-score class no change with or without drug; viability z-score with doxorubicin 0.56; viability z-score without drug 0.84. Pomk scored combined z-score class no change with or without drug; viability z-score with doxorubicin 0.22; viability z-score without drug -1.52.

Pomk gave combined z-score class high cell count without drug only; viability z-score with doxorubicin 0.45; viability z-score without drug 3.37. Against Nusap1, the values are combined z-score class no change with or without drug; viability z-score with doxorubicin 0; viability z-score without drug 0.17. Ablim1 gave combined z-score class no change with or without drug; viability z-score with doxorubicin -0.22; viability z-score without drug 1.52. After knock-down of Sh3pxd2b the results were combined z-score class no change with or without drug; viability z-score with doxorubicin 1.12; viability z-score without drug 0.84. For Cts8, the entry reads combined z-score class no change with or without drug; viability z-score with doxorubicin -0.34; viability z-score without drug -0.17. P4ha2 scored combined z-score class no change with or without drug; viability z-score with doxorubicin -1.12; viability z-score without drug -0.17.

For Nlrp9a the deposit lists combined z-score class no change with or without drug; viability z-score with doxorubicin 0; viability z-score without drug -0.84. Or5p81 scored combined z-score class no change with or without drug; viability z-score with doxorubicin -0.67; viability z-score without drug -0.17. Against Tdg, the entry reads combined z-score class no change with or without drug; viability z-score with doxorubicin 0.9; viability z-score without drug 0.34. Against Pcif1 the deposit lists combined z-score class no change with or without drug; viability z-score with doxorubicin 1.57; viability z-score without drug 0.84.

Looked up above:
Nusap1, combined z-score class = no change with or without drug
For “combined z-score class”, Padi3 reads no change with or without drug
Recql5, viability z-score without drug: -0.17
Result for Pcif1 in “combined z-score class”: no change with or without drug
For “viability z-score with doxorubicin”, Pde4d #2 shows -2.7 (active)
